Paper PMC6529429
These are yes or no findings as the source states them, for the method shown.

By UniProt entry, the sequences of proteins in these tests, tags left out.
UniProt Q9BQ24: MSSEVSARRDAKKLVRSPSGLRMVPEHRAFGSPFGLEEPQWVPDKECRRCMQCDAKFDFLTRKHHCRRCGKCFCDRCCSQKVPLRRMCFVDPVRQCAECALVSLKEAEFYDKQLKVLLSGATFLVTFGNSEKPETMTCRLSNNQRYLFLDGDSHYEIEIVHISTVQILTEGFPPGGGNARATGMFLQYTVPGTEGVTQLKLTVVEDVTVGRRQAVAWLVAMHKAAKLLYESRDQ
UniProt Q9HAU4: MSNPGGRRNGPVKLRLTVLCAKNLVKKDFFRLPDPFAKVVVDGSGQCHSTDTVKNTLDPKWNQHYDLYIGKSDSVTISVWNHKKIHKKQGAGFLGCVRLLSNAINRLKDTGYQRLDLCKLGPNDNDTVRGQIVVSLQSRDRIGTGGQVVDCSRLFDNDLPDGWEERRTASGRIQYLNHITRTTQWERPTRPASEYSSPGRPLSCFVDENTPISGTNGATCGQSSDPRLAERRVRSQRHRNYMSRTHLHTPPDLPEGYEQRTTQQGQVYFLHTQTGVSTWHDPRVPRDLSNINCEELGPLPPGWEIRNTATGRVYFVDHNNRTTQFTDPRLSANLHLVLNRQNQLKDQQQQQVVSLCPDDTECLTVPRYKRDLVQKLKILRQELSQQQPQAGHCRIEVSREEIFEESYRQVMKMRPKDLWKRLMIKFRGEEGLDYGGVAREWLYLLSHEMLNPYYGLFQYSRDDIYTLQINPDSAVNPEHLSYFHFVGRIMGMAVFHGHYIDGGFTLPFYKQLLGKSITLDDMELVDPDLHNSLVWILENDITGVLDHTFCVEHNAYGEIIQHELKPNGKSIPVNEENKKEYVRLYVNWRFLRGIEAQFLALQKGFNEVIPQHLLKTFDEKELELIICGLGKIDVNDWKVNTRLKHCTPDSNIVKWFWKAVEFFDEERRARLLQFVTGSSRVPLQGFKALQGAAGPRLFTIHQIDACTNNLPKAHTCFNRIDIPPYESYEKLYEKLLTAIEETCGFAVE

Target: recombinant FLAG-tagged ZFYVE21 (UniProt Q9BQ24)
Test: pull-down; ZFYVE21 (1 μg) held on anti-ZFYVE21 protein A/G beads, washed, incubated with SMURF2 (1 μg) 30 min at room temperature; 32 μL RIPA buffer; western blot; both purified

## recombinant SMURF2 (from UniProt Q9HAU4 1-748)
  binding: no binding (tested: 1 μg of each protein)
